Experimental findings from the supplement of paper PMC4862054 are described below.

The structures appear in SMILES notation. Most entries show no effect beyond the scatter of the controls.

What all share (test): normalised response (% of control), CellTox Green; higher = less cell death (100 = DMSO, 0 = benzethonium chloride kill control)
Holding throughout (conditions): incubation time: 72 h

Assay [1] has as its system BT-474. On the procedure:
(§1)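 DSRT, 72 h incubation, CellTox Green / CellTiter-Glo readout. Signal is normalised to DMSO and benzethonium chloride controls. Value is the normalised response at dose 2.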

For assay [2], the system named is BT-549. On the procedure:
as §1

In assay [3] the test system is CAL-120. On the procedure:
as §1

For assay [4], the system named is CAL-148. On the procedure:
as §1

For assay [5], the system named is CAL-51. On the procedure: as §1
Assay [6] deals with CAL-85-1. On the procedure: as §1
The test system of assay [7] is DU-4475. On the procedure:
as §1

In assay [8] the test system is HCC1143. On the procedure: as §1
Assay [9] deals with HCC1599. On the procedure: as §1
A further assay relates to HDQ-P1. On the procedure: as §1
Assay [10] concerns Hs578T. On the procedure: as §1
Assay [11] has as its system MCF-10A. On the procedure: as §1
Assay [12] deals with MDA-MB-231. On the procedure:
as §1

Assay [13] deals with MDA-MB-436. On the procedure: as §1
Assay [14] deals with MDA-MB-453. On the procedure:
as §1

Assay [15] relates to MDA-MB-468. On the procedure:
as §1

Assay [16] relates to MFM-223. On the procedure:
as §1

For assay [17], the system named is BT-474. On the procedure: (§2)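 DSRT, 72 h incubation, CellTox Green / CellTiter-Glo readout. Signal is normalised to DMSO and benzethonium chloride controls. Value is the normalised response at the lowest tested concentration.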
This is another data set of the same source.

The subject of assay [18] is BT-549. On the procedure: as §2
The source holds these as a separate data set.

Assay [19] has as its system CAL-120. On the procedure:
as §2
The source holds these as a separate data set.

In assay [20] the test system is CAL-148. On the procedure:
as §2
The source holds these as a separate data set.

Assay [21] concerns CAL-51. On the procedure: as §2
This is another data set of the same source.

Assay [22] deals with CAL-85-1. On the procedure: as §2
This is another data set of the same source.

Assay [23] has as its system DU-4475. On the procedure:
as §2
This is another data set of the same source.

For assay [24], the system named is HCC1143. On the procedure: as §2
The source holds these as a separate data set.

Assay [25] relates to HCC1599. On the procedure:
as §2
The source holds these as a separate data set.

For a further assay, the system named is HCC1937. On the procedure: as §2
For assay [26], the system named is Hs578T. On the procedure:
as §2
This is another data set of the same source.

For assay [27], the system named is MCF-10A. On the procedure:
as §2
The source holds these as a separate data set.

Assay [28] relates to MDA-MB-231. On the procedure: as §2
This is another data set of the same source.

In assay [29] the test system is MDA-MB-436. On the procedure: as §2
This is another data set of the same source.

The subject of assay [30] is MDA-MB-453. On the procedure:
as §2
The source holds these as a separate data set.

Assay [31] deals with MDA-MB-468. On the procedure:
as §2
This is another data set of the same source.

The test system of assay [32] is MFM-223. On the procedure:
as §2
The source holds these as a separate data set.

For `Cc1cc(Nc2nc(N[C@@H](C)c3ncc(F)cn3)ncc2Cl)[nH]n1` [AZD1480] (1 nM), the normalised response in the assay with BT-474 [1] came out at 98.8%; in the assay on BT-549 [2], 106%; in the assay with CAL-120 [3], 102%; in the assay with CAL-148 [4], 103%; in the assay with CAL-51 [5] it was 102%; with CAL-85-1 [6], 98.8%. For the same compound, the normalised response in the assay on DU-4475 [7] stood at 96.2%; in the assay with HCC1143 [8] it was 100%; with HCC1599 [9], 95.8%; in the assay with HDQ-P1 it was 115%; in the assay with Hs578T [10], 111%; in the assay on MCF-10A [11], 99%. Also, the normalised response was 95.3% in the assay with MDA-MB-231 [12]; 100% in the assay on MDA-MB-436 [13]; 101% in the assay on MDA-MB-453 [14]; 86.3% in the assay on MDA-MB-468 [15]; 102% in the assay on MFM-223 [16].
`COc1cc2c(cc1-c1c(C)noc1C)ncc1[nH]c(=O)n([C@H](C)c3ccccn3)c12` [I-BET151] (1 nM): the normalised response in the assay on BT-474 [17] was 101%; in the assay with BT-549 [18], 86.8%; with CAL-120 [19], 103%; in the assay on CAL-148 [20], 94.4%; in the assay with CAL-51 [21], 87.7%; in the assay on CAL-85-1 [22], 97%. In addition, the normalised response in the assay on DU-4475 [23] is 104%; in the assay on HCC1143 [24] it was 116%; in the assay with HCC1599 [25], 105%; with HCC1937, 70.6%; with Hs578T [26], 116%; with MCF-10A [27], 91%. Also, the normalised response in the assay on MDA-MB-231 [28] was 103%; in the assay on MDA-MB-436 [29] it was 96.3%; with MDA-MB-453 [30], 109%; in the assay with MDA-MB-468 [31], 119%; in the assay with MFM-223 [32], 87.5%.
Turning to `C=CC(=O)N1CCC[C@@H](n2nc(-c3ccc(Oc4ccccc4)cc3)c3c(N)ncnc32)C1` [Ibrutinib] (0.1 nM), the normalised response in the assay on BT-474 [17] is 102%; in the assay on BT-549 [18] it was 94.9%; in the assay on CAL-120 [19], 97.5%; with CAL-148 [20], 88%; in the assay on CAL-51 [21], 117%; with CAL-85-1 [22] it was 98.6%. Also, the normalised response with DU-4475 [23] turned out to be 104%; in the assay with HCC1143 [24], 109%; with HCC1599 [25], 106%; in the assay on HCC1937, 69.4%; in the assay on Hs578T [26] it was 99.4%; in the assay on MCF-10A [27], 100%. Besides, the normalised response in the assay on MDA-MB-231 [28] worked out at 108%; with MDA-MB-436 [29] it was 53.5%; in the assay with MDA-MB-453 [30], 108%; in the assay with MDA-MB-468 [31] it was 87.8%; in the assay with MFM-223 [32], 91.8%.
For `C[C@]12O[C@H](C[C@]1(O)CO)n1c3ccccc3c3c4c(c5c6ccccc6n2c5c31)CNC4=O` [Lestaurtinib] (1 nM), the normalised response with BT-474 [1] came out at 99.2%; in the assay with BT-549 [2] it was 88%; with CAL-120 [3] it was 94.5%; in the assay with CAL-148 [4] it was 92.9%; with CAL-51 [5], 103%; in the assay on CAL-85-1 [6], 97.4%. In addition, the normalised response worked out at 96.2% in the assay with DU-4475 [7]; 107% with HCC1143 [8]; 93.9% with HCC1599 [9]; 87.5% in the assay on HDQ-P1; 67.7% in the assay on MCF-10A [11]; 92.9% in the assay on MDA-MB-231 [12]. Moreover, the normalised response in the assay on MDA-MB-436 [13] is 74.4%; in the assay with MDA-MB-453 [14], 94.9%; in the assay on MDA-MB-468 [15] it was 82.2%; with MFM-223 [16], 96.8%.
As to `FC(F)c1nc2ccccc2n1-c1nc(N2CCOCC2)nc(N2CCOCC2)n1` [ZSTK474] (1 nM), the normalised response in the assay on BT-474 [17] was determined as 101%; in the assay on BT-549 [18], 99.2%; in the assay with CAL-120 [19] it was 107%; in the assay on CAL-148 [20], 102%; in the assay with CAL-51 [21] it was 98%; in the assay on CAL-85-1 [22] it was 105%. Further, the normalised response in the assay with DU-4475 [23] was determined as 111%; with HCC1143 [24], 113%; in the assay on HCC1599 [25], 111%; with HCC1937 it was 115%; in the assay with Hs578T [26], 116%; in the assay with MCF-10A [27], 106%. The normalised response stood at 109% in the assay on MDA-MB-231 [28]; 95.8% in the assay on MDA-MB-436 [29]; 104% in the assay on MDA-MB-453 [30]; 104% in the assay on MDA-MB-468 [31]; 107% in the assay on MFM-223 [32].
Regarding `FC(F)c1nc2ccccc2n1-c1nc(N2CCOCC2)nc(N2CCOCC2)n1` [ZSTK474] (10 nM), the normalised response in the assay with BT-474 [1] was found to be 106%; with BT-549 [2], 113%; in the assay on CAL-120 [3], 97.2%; with CAL-148 [4], 107%; with CAL-51 [5], 88.4%; in the assay on CAL-85-1 [6], 111%. Further, the normalised response in the assay on DU-4475 [7] is 95.7%; in the assay with HCC1143 [8], 117%; with HCC1599 [9] it was 102%; with HDQ-P1, 98.1%; in the assay with Hs578T [10], 76%; in the assay with MCF-10A [11], 101%. Moreover, the normalised response in the assay on MDA-MB-231 [12] is 112%; in the assay with MDA-MB-436 [13], 98.8%; in the assay with MDA-MB-453 [14], 99.8%; in the assay on MFM-223 [16] it was 103%.
